Results on 42 sequences are retold here after article PMC7819943, “Rice protein-binding microarrays: a tool to detect cis-acting elements near promoter regions in rice”.

The other results are listed elsewhere or left out.

The target in the experiment is T1, OsSMF1 (Oryza sativa, UniProt Q6ZLB0 1-436).
T1 sequence: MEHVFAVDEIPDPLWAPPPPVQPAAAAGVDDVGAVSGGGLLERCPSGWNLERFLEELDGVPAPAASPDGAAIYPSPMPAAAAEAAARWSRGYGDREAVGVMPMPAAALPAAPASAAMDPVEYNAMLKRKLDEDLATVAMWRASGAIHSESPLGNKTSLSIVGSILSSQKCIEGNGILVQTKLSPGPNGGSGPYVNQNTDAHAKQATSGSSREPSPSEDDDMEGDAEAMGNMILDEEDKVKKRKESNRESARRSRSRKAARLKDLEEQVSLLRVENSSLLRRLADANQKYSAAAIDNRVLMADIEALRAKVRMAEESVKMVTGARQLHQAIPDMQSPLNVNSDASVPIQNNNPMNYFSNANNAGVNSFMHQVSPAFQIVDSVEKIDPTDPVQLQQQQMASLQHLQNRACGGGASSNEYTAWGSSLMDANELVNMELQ
The experiment in a line: protein-binding microarray (RPBM); PBS, 2% BSA, 51.3 ng/ul salmon testes DNA, 50 uM zinc acetate, 200 nM TF, 25 C, 1 h; high values mean tight binding. The following applies: protein: recombinant; tags: N-terminal polyhistidine and DsRed monomer fusion (pET32a); chain copies: 2; label: CyDye5-dUTP incorporated in the synthesized complementary strand; 3' TTTTT single-stranded linker to array surface; dsDNA, one strand shown. Put shortly:
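For the binding signal, per-feature fluorescence intensity was read in arbitrary units on an Axon 4000B scanner. Before scanning, a 2% BSA-blocked custom Agilent array made double-stranded with Cy5-dUTP was washed after 1 h at 25 °C with 200 nM protein and 50 µM zinc acetate. The proteins were Ni–NTA-purified transcription factors with N-terminal polyhistidine and DsRed fusions, expressed in E. coli BL21-CodonPlus.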
For the sequence “ATCGAAACACTAGGCAGGGGTAGGGAGCTACACACACATACGGAGTCACCTAGTGCAG”, the binding signal was 3550 fluorescence intensity (a.u.).
On to “TGTATGCGGCAGTAGGCATAGATGGAGTTCGACCGCGCGTCGGAGTCACCTAGTGCAG”, for which the binding signal was 23100 fluorescence intensity (a.u.).
As to “CCGTTTCCGAATCTCGAGGCGCAAGAGGCCATCGAACGGCCGGAGTCACCTAGTGCAG”, the binding signal was 38300 fluorescence intensity (a.u.).
Then “TGGTTTTACTCATTCATCATGTCACACATCCACGTCGCCGCGGAGTCACCTAGTGCAG”, with 5240 fluorescence intensity (a.u.); and “GATCTGGGAGCGGCGTCGGCGGTGGCGGTGTCCTCCAGCGCGGAGTCACCTAGTGCAG”, with 3460 fluorescence intensity (a.u.); and “GCCATAAGTTTCCGTGTCCAACTCATCTTATTTGAAATTTCGGAGTCACCTAGTGCAG”, with 4730 fluorescence intensity (a.u.).
On to “GTTTTAGCTGTTAGTGAGTTCTGACGTGTGTTGTGTAACTCGGAGTCACCTAGTGCAG”, for which the binding signal was 8230 fluorescence intensity (a.u.).
As to “GGGCTCATGATTGGGGATATGGCGGTGTTGGCGAAGAATGCGGAGTCACCTAGTGCAG”, the binding signal was 3990 fluorescence intensity (a.u.).
Take “AGAATTCAATGGTGGTGGTATTGAAGCTGCCATCAACACACGGAGTCACCTAGTGCAG”: the binding signal was 3440 fluorescence intensity (a.u.).
“GGACTGGGGAAGACGACACGACATGGGCTGGGCTGGGCTGCGGAGTCACCTAGTGCAG”: the binding signal was 3520 fluorescence intensity (a.u.).
For “TGGAGGTTGCCGTCGACGTACCACACGTCGACGGCGTTGGCGGAGTCACCTAGTGCAG”, the binding signal was 4830 fluorescence intensity (a.u.).
“AACTCTCTCGCACGTGACGTAGCACGTGACAGCTCGCCCACGGAGTCACCTAGTGCAG”: the binding signal was 8192 fluorescence intensity (a.u.).
For “CGAGTCTCGTGACCTCACGTGACGCTTCCGCCTCTAGCTCCGGAGTCACCTAGTGCAG”, the binding signal was 3270 fluorescence intensity (a.u.).
With “CAGACCAGTGTAATTCGGCTCTGCCAGCGTGTCAAAATCACGGAGTCACCTAGTGCAG”, the binding signal is 5800 fluorescence intensity (a.u.).
With “ATGCCCGGCGGCAGCCACGCACAGCGCGCCCCACAGCCGACGGAGTCACCTAGTGCAG”, the binding signal was 3920 fluorescence intensity (a.u.).
To “GGATGCGTGCGTGGCATTTCTGGACTGGATTCTTTGTGATCGGAGTCACCTAGTGCAG” belongs 10400 fluorescence intensity (a.u.); to “GAGCGGCATGAAGGGTGATGAGCTGATGATGCTGTCGTGGCGGAGTCACCTAGTGCAG”, 3850 fluorescence intensity (a.u.).
Take “TCGCCCGCGTCAGGCCAGGCCACCCGAGCCGCATCGCCCACGGAGTCACCTAGTGCAG”: the binding signal is 4360 fluorescence intensity (a.u.).
Regarding “TGGAAGCAATGCGAGCAGGGCATCCTCGTCAGCTTCTCTCCGGAGTCACCTAGTGCAG”, the binding signal is 3460 fluorescence intensity (a.u.).
Regarding “ACCGACGTTTAATCCCTGAGAGCCAGCCGTTGGCTGTGTACGGAGTCACCTAGTGCAG”, the binding signal is 65500 fluorescence intensity (a.u.).
“CCCTCCCCTCTGCCCGCGCAAGCCGCAGCAGCAGCATCAGCGGAGTCACCTAGTGCAG”: the binding signal is 3430 fluorescence intensity (a.u.).
On to “GTCGATCTAACGTACGCCTTTGCGTGTCGACGCGGCCTTTCGGAGTCACCTAGTGCAG”, for which the binding signal was 5930 fluorescence intensity (a.u.).
Turning to “GAAAGTCAGAAACGGCTGTACGTGTAACCCGCAGGGGCAACGGAGTCACCTAGTGCAG”, the binding signal is 4910 fluorescence intensity (a.u.).
In the case of “CTGCAAACATACATTAATTGATGCATCCAGAAGAGTTAGACGGAGTCACCTAGTGCAG”, the binding signal is 28600 fluorescence intensity (a.u.).
For the sequence “CTCAACTGCTATGCGAAATTTTCCACGTAGCAGTAGTAGCCGGAGTCACCTAGTGCAG”, the binding signal was 6050 fluorescence intensity (a.u.).
Regarding “CACATGAGGAAGGCCCATGTGCGTGACTCATCATCCTTCGCGGAGTCACCTAGTGCAG”, the binding signal is 27500 fluorescence intensity (a.u.).
In the case of “TCAATTTTCCCTGCACCTGCTGGCACGCCATTTCCGTCATCGGAGTCACCTAGTGCAG”, the binding signal was 3270 fluorescence intensity (a.u.).
Regarding “TCCTTATCCTCTGTCCCAAATAATTATACTCGTCTCTATCCGGAGTCACCTAGTGCAG”, the binding signal is 3490 fluorescence intensity (a.u.).
To “CCCGCAGTCACAGTGACGTCACCGTTGGCTGCGTACTCGGCGGAGTCACCTAGTGCAG” belongs 14400 fluorescence intensity (a.u.); to “TCGCAAACTCCCAACACATACGTGGCTGAAGCCTCTGAAGCGGAGTCACCTAGTGCAG”, 9830 fluorescence intensity (a.u.); to “CACAAAACCACATGTATTATGAAGCGTGGCAAATAATCACCGGAGTCACCTAGTGCAG”, 4260 fluorescence intensity (a.u.).
As for “GGGCTACCACGTGGACACCACGTCAGCAAATACTGCCAATCGGAGTCACCTAGTGCAG”, the binding signal was 16800 fluorescence intensity (a.u.).
To “AAAGGAGAAGGCAACCTGCCTTGACTGTTGCTCCGCTGCCCGGAGTCACCTAGTGCAG” belongs 22400 fluorescence intensity (a.u.).
Turning to “ATTCCTCTCACTGCGTCATGGCTTGGCGTCTCTCCTTCCTCGGAGTCACCTAGTGCAG”, the binding signal was 6610 fluorescence intensity (a.u.).
For the sequence “CATGCTCATGAGGACCTGGAATCCTGATGACGTTGTACAGCGGAGTCACCTAGTGCAG”, the binding signal is 6550 fluorescence intensity (a.u.).
Turning to “GTCTGCCACGGGTTCCTCGTCTCTTCCTCTCCATTTCTACCGGAGTCACCTAGTGCAG”, the binding signal was 3640 fluorescence intensity (a.u.).
To “CCACCCCACCCCACGCTCCCCTCCTCCGCGGGCTTGGCATCGGAGTCACCTAGTGCAG” belongs 3150 fluorescence intensity (a.u.); to “AATTCCATCCTGCCCAACTATTCACAACGTGTGTGCGTGGCGGAGTCACCTAGTGCAG”, 3540 fluorescence intensity (a.u.).
“AAATAATTGAGGTCAGCGTCACGTATAGCAGCGGTAGCTTCGGAGTCACCTAGTGCAG”: the binding signal is 4170 fluorescence intensity (a.u.).
Then “GGTCAATGAACGCTGCACATAAACAACAATAAATGGGTCGCGGAGTCACCTAGTGCAG”, with 29400 fluorescence intensity (a.u.); and “ATCCTAGCTACGTCACTGCCTACTTGACAAAGTTACGGTACGGAGTCACCTAGTGCAG”, with 10300 fluorescence intensity (a.u.); and “CGTATGTATCGATTGTCAATTTGGAAATGCTGCTTTGTTGCGGAGTCACCTAGTGCAG”, with 3380 fluorescence intensity (a.u.).
